Results published in patent publication US20250074896A1, “ARYLTETRAHYDROPYRIDAZINE DERIVATIVE OR SALT THEREOF AND INSECTICIDAL AGENT CONTAINING THE COMPOUND AND METHOD FOR USING SAME” (NIHON NOHYAKU CO., LTD., priority 2021, published 2025).
Some entries share one result that the patent states for a list of compounds.

How the values were obtained:
Assay type in all cases: in vivo
[1] = system: Western Flower Thrips (Frankliniella occidentalis); experiment: Insecticidal test on western flower thrips (kidney bean leaf pieces, hatched larvae); conditions: 4 days after the treatment
[2] = system: Diamondback moth (Plutella xylostella); experiment: Insecticidal test on diamondback moth (dip treatment of Chinese cabbage seedlings with laid eggs); conditions: dip about 30 seconds, 6 days after treatment, 25° C.
[3] = system: Small Brown Planthopper (Laodelphax striatellus); experiment: Insecticidal test on small brown planthopper (dipped rice seedlings, 3rd-instar larvae); conditions: rice seedlings dipped 30 seconds, 8 days after inoculation

Cn1nnnc1-c1ccc(N2CC(O)=C(C(=O)Nc3cc(F)c(F)c(F)c3)C(=O)N2)cn1 [1-385]
A (the mortality rate is 100%): insecticidal efficacy (corrected mortality rate) against western flower thrips ([1]; 50 ppm) | insecticidal efficacy (corrected mortality rate) against western flower thrips ([1]; 500 ppm) | insecticidal efficacy (corrected mortality rate) against diamondback moth ([2]; 50 ppm) | insecticidal efficacy (corrected mortality rate) against diamondback moth ([2]; 500 ppm) | insecticidal efficacy (corrected mortality rate) against small brown planthopper ([3]; 50 ppm) | insecticidal efficacy (corrected mortality rate) against small brown planthopper ([3]; 500 ppm)

Cc1cccc(NC(=O)C2=C(O)CN(c3cnc(C#N)c(Cl)c3)NC2=O)n1 [1-282]
A (the mortality rate is 100%): insecticidal efficacy (corrected mortality rate) against western flower thrips ([1]; 50 ppm) | insecticidal efficacy (corrected mortality rate) against western flower thrips ([1]; 500 ppm) | insecticidal efficacy (corrected mortality rate) against diamondback moth ([2]; 500 ppm) | insecticidal efficacy (corrected mortality rate) against small brown planthopper ([3]; 50 ppm) | insecticidal efficacy (corrected mortality rate) against small brown planthopper ([3]; 500 ppm)

COc1ccc(NC(=O)C2=C(O)CN(c3ccc(C(F)(F)F)nc3)NC2=O)cn1 [1-60]
A (the mortality rate is 100%): insecticidal efficacy (corrected mortality rate) against western flower thrips ([1]; 500 ppm) | insecticidal efficacy (corrected mortality rate) against diamondback moth ([2]; 500 ppm) | insecticidal efficacy (corrected mortality rate) against small brown planthopper ([3]; 500 ppm)

COC(=O)N1C(=O)C(C(=O)Nc2ccc(F)cc2)=C(O)CN1c1ccc(C#N)cc1 [3-230]
A (the mortality rate is 100%): insecticidal efficacy (corrected mortality rate) against western flower thrips ([1]; 50 ppm) | insecticidal efficacy (corrected mortality rate) against western flower thrips ([1]; 500 ppm) | insecticidal efficacy (corrected mortality rate) against diamondback moth ([2]; 50 ppm) | insecticidal efficacy (corrected mortality rate) against diamondback moth ([2]; 500 ppm) | insecticidal efficacy (corrected mortality rate) against small brown planthopper ([3]; 50 ppm) | insecticidal efficacy (corrected mortality rate) against small brown planthopper ([3]; 500 ppm)

COC(=O)N1C(=O)C(C(=O)Nc2ccc(Cl)cc2F)=C(O)CN1c1ccc(C#N)nc1 [3-428]
A (the mortality rate is 100%): insecticidal efficacy (corrected mortality rate) against western flower thrips ([1]; 50 ppm) | insecticidal efficacy (corrected mortality rate) against western flower thrips ([1]; 500 ppm) | insecticidal efficacy (corrected mortality rate) against diamondback moth ([2]; 50 ppm) | insecticidal efficacy (corrected mortality rate) against diamondback moth ([2]; 500 ppm) | insecticidal efficacy (corrected mortality rate) against small brown planthopper ([3]; 50 ppm) | insecticidal efficacy (corrected mortality rate) against small brown planthopper ([3]; 500 ppm)

N#Cc1ccc(NC(=O)C2=C(O)CN(c3ccc(Cl)cn3)NC2=O)cc1 [1-90]
A (the mortality rate is 100%): insecticidal efficacy (corrected mortality rate) against western flower thrips ([1]; 50 ppm) | insecticidal efficacy (corrected mortality rate) against western flower thrips ([1]; 500 ppm) | insecticidal efficacy (corrected mortality rate) against diamondback moth ([2]; 50 ppm) | insecticidal efficacy (corrected mortality rate) against diamondback moth ([2]; 500 ppm) | insecticidal efficacy (corrected mortality rate) against small brown planthopper ([3]; 50 ppm) | insecticidal efficacy (corrected mortality rate) against small brown planthopper ([3]; 500 ppm)

O=C(Nc1ccc(Cl)c(Cl)c1)C1=C(O)CN(c2ccc(Cl)nc2)NC1=O [1-70]
A (the mortality rate is 100%): insecticidal efficacy (corrected mortality rate) against western flower thrips ([1]; 500 ppm) | insecticidal efficacy (corrected mortality rate) against diamondback moth ([2]; 500 ppm) | insecticidal efficacy (corrected mortality rate) against small brown planthopper ([3]; 500 ppm)

COC(=O)N1C(=O)C(C(=O)Nc2ccc(F)c(F)c2F)=C(O)CN1c1ccc(Br)nc1 [3-652]
A (the mortality rate is 100%): insecticidal efficacy (corrected mortality rate) against western flower thrips ([1]; 50 ppm) | insecticidal efficacy (corrected mortality rate) against western flower thrips ([1]; 500 ppm) | insecticidal efficacy (corrected mortality rate) against diamondback moth ([2]; 50 ppm) | insecticidal efficacy (corrected mortality rate) against diamondback moth ([2]; 500 ppm) | insecticidal efficacy (corrected mortality rate) against small brown planthopper ([3]; 50 ppm) | insecticidal efficacy (corrected mortality rate) against small brown planthopper ([3]; 500 ppm)

O=C(Nc1ccccc1F)C1=C(O)CN(c2ccc(C(F)(F)F)nc2)NC1=O [1-50]
A (the mortality rate is 100%): insecticidal efficacy (corrected mortality rate) against western flower thrips ([1]; 500 ppm) | insecticidal efficacy (corrected mortality rate) against diamondback moth ([2]; 500 ppm) | insecticidal efficacy (corrected mortality rate) against small brown planthopper ([3]; 500 ppm)

COC(=O)N1C(=O)C(C(=O)Nc2ccc(F)cn2)=C(O)CN1c1ccc(C#N)c(C)c1 [3-220]
A (the mortality rate is 100%): insecticidal efficacy (corrected mortality rate) against western flower thrips ([1]; 50 ppm) | insecticidal efficacy (corrected mortality rate) against western flower thrips ([1]; 500 ppm) | insecticidal efficacy (corrected mortality rate) against diamondback moth ([2]; 500 ppm) | insecticidal efficacy (corrected mortality rate) against small brown planthopper ([3]; 50 ppm) | insecticidal efficacy (corrected mortality rate) against small brown planthopper ([3]; 500 ppm)

CCCCOC(=O)N1C(=O)C(C(=O)Nc2ccc(F)cc2)=C(O)CN1c1ccc(C(F)(F)F)nc1 [3-268]
A (the mortality rate is 100%): insecticidal efficacy (corrected mortality rate) against western flower thrips ([1]; 50 ppm) | insecticidal efficacy (corrected mortality rate) against western flower thrips ([1]; 500 ppm) | insecticidal efficacy (corrected mortality rate) against diamondback moth ([2]; 50 ppm) | insecticidal efficacy (corrected mortality rate) against diamondback moth ([2]; 500 ppm) | insecticidal efficacy (corrected mortality rate) against small brown planthopper ([3]; 50 ppm) | insecticidal efficacy (corrected mortality rate) against small brown planthopper ([3]; 500 ppm)

N#Cc1ncc(N2CC(O)=C(C(=O)Nc3ccc(F)cc3)C(=O)N2)cc1Cl [1-96]
A (the mortality rate is 100%): insecticidal efficacy (corrected mortality rate) against western flower thrips ([1]; 500 ppm) | insecticidal efficacy (corrected mortality rate) against diamondback moth ([2]; 500 ppm) | insecticidal efficacy (corrected mortality rate) against small brown planthopper ([3]; 500 ppm)

COC(=O)N1C(=O)C(C(=O)Nc2ccc(F)c(F)c2)=C(O)CN1c1cnc(C#N)c(Cl)c1 [3-167]
A (the mortality rate is 100%): insecticidal efficacy (corrected mortality rate) against western flower thrips ([1]; 50 ppm) | insecticidal efficacy (corrected mortality rate) against western flower thrips ([1]; 500 ppm) | insecticidal efficacy (corrected mortality rate) against diamondback moth ([2]; 50 ppm) | insecticidal efficacy (corrected mortality rate) against diamondback moth ([2]; 500 ppm) | insecticidal efficacy (corrected mortality rate) against small brown planthopper ([3]; 50 ppm) | insecticidal efficacy (corrected mortality rate) against small brown planthopper ([3]; 500 ppm)

COC(=O)N1C(=O)C(C(=O)Nc2ccc(F)cc2)=C([O-])CN1c1cnc(C#N)c(Cl)c1.[K+] [3-677]
A (the mortality rate is 100%): insecticidal efficacy (corrected mortality rate) against western flower thrips ([1]; 50 ppm) | insecticidal efficacy (corrected mortality rate) against western flower thrips ([1]; 500 ppm) | insecticidal efficacy (corrected mortality rate) against diamondback moth ([2]; 50 ppm) | insecticidal efficacy (corrected mortality rate) against diamondback moth ([2]; 500 ppm) | insecticidal efficacy (corrected mortality rate) against small brown planthopper ([3]; 50 ppm) | insecticidal efficacy (corrected mortality rate) against small brown planthopper ([3]; 500 ppm)

N#Cc1ncc(N2CC(O)=C(C(=O)Nc3ccc(F)nc3)C(=O)N2)cc1Cl [1-54]
A (the mortality rate is 100%): insecticidal efficacy (corrected mortality rate) against western flower thrips ([1]; 500 ppm) | insecticidal efficacy (corrected mortality rate) against diamondback moth ([2]; 500 ppm)

Cc1cc(Cl)ccc1NC(=O)C1=C(O)CN(c2ccc(C#N)nc2)NC1=O [1-305]
A (the mortality rate is 100%): insecticidal efficacy (corrected mortality rate) against western flower thrips ([1]; 50 ppm) | insecticidal efficacy (corrected mortality rate) against western flower thrips ([1]; 500 ppm) | insecticidal efficacy (corrected mortality rate) against diamondback moth ([2]; 50 ppm) | insecticidal efficacy (corrected mortality rate) against diamondback moth ([2]; 500 ppm)

CCOC(=O)c1ccc(N2CC(O)=C(C(=O)Nc3ccc(F)cc3)C(=O)N2)nn1 [1-145]
A (the mortality rate is 100%): insecticidal efficacy (corrected mortality rate) against western flower thrips ([1]; 500 ppm) | insecticidal efficacy (corrected mortality rate) against diamondback moth ([2]; 500 ppm)

COC(=O)N1C(=O)C(C(=O)Nc2cccc(C#N)n2)=C(O)CN1c1cnc(C#N)c(Cl)c1 [3-492]
A (the mortality rate is 100%): insecticidal efficacy (corrected mortality rate) against western flower thrips ([1]; 50 ppm) | insecticidal efficacy (corrected mortality rate) against western flower thrips ([1]; 500 ppm) | insecticidal efficacy (corrected mortality rate) against diamondback moth ([2]; 500 ppm)

O=C(Nc1ccc(F)cc1)C1=C(O)CN(c2ccc(C3CC3)cc2)NC1=O [1-28]
A (the mortality rate is 100%): insecticidal efficacy (corrected mortality rate) against western flower thrips ([1]; 500 ppm) | insecticidal efficacy (corrected mortality rate) against diamondback moth ([2]; 500 ppm)

O=C(Nc1ccc(I)cc1)C1=C(O)CN(c2ccc(Cl)nc2)NC1=O [1-106]
A (the mortality rate is 100%): insecticidal efficacy (corrected mortality rate) against western flower thrips ([1]; 500 ppm) | insecticidal efficacy (corrected mortality rate) against diamondback moth ([2]; 500 ppm)

CONC1=C(C(=O)Nc2ccc(F)cc2)C(=O)NN(c2ccc(C(F)(F)F)nc2)C1 [5-22]
A (the mortality rate is 100%): insecticidal efficacy (corrected mortality rate) against western flower thrips ([1]; 500 ppm) | insecticidal efficacy (corrected mortality rate) against diamondback moth ([2]; 50 ppm) | insecticidal efficacy (corrected mortality rate) against diamondback moth ([2]; 500 ppm)

O=C(Nc1cccc(OC(F)(F)F)c1)C1=C(O)CN(c2ccc(C(F)(F)F)nc2)NC1=O [1-81]
A (the mortality rate is 100%): insecticidal efficacy (corrected mortality rate) against western flower thrips ([1]; 500 ppm) | insecticidal efficacy (corrected mortality rate) against diamondback moth ([2]; 500 ppm)

Cc1cccc(NC(=O)C2=C(O)CN(c3ccc(Cl)nn3)NC2=O)n1 [1-392]
A (the mortality rate is 100%): insecticidal efficacy (corrected mortality rate) against western flower thrips ([1]; 500 ppm) | insecticidal efficacy (corrected mortality rate) against diamondback moth ([2]; 500 ppm)
